This note sets out measurements from the supplement of paper PMC12819154, “High-throughput peptide-centric local stability assay extends protein–ligand identification to membrane proteins, tissues and bacteria” (Nature Structural & Molecular Biology, 2025).

Amino acid sequences for entries named in this document (tags omitted). A change or cut given only in a name is not applied to a line headed by its entry.
UniProt Q9H6L4: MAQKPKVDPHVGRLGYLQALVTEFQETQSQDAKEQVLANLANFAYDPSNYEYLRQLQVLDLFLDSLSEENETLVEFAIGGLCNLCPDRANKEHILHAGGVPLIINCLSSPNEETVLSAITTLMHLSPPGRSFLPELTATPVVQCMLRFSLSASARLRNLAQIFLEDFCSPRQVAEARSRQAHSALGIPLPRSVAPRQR
UniProt Q9H832: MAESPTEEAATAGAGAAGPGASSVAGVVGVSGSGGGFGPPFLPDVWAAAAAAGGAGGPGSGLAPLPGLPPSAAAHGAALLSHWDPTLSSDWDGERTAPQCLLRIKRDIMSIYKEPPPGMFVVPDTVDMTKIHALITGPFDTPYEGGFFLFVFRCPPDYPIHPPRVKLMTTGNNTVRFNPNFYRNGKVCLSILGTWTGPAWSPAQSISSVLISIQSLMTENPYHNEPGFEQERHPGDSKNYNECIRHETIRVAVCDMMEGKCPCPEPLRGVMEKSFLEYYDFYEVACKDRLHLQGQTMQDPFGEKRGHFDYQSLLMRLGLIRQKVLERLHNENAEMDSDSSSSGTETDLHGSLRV
UniProt Q9NQ29: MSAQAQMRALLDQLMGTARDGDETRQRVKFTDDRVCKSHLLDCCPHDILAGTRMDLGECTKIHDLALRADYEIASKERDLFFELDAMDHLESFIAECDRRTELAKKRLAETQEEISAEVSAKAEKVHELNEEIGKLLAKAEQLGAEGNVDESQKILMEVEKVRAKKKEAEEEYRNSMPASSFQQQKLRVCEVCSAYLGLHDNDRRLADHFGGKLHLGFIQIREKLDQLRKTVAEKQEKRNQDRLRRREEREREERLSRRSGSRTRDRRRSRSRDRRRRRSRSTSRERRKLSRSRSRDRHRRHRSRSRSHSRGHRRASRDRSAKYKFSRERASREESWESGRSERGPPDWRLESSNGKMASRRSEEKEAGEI
UniProt Q9H9A5, whole entry: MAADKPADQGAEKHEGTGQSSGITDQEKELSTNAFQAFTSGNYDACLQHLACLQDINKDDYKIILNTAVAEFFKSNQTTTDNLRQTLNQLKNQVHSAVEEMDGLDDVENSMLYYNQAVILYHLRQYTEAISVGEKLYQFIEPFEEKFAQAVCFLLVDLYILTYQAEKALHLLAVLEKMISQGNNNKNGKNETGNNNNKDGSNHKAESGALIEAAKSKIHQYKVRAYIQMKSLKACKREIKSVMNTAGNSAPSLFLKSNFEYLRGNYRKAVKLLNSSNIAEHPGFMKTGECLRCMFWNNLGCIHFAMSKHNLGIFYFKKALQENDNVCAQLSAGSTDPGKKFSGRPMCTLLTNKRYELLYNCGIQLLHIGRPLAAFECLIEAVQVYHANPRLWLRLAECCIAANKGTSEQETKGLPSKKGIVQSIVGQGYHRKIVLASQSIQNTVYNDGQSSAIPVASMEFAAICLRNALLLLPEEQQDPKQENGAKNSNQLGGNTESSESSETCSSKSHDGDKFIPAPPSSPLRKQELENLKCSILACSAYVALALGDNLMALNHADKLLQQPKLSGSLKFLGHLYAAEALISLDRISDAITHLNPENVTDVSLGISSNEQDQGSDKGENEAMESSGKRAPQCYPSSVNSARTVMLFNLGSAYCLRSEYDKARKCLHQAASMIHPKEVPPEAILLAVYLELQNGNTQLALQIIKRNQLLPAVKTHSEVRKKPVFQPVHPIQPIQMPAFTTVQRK
UniProt Q9HB19: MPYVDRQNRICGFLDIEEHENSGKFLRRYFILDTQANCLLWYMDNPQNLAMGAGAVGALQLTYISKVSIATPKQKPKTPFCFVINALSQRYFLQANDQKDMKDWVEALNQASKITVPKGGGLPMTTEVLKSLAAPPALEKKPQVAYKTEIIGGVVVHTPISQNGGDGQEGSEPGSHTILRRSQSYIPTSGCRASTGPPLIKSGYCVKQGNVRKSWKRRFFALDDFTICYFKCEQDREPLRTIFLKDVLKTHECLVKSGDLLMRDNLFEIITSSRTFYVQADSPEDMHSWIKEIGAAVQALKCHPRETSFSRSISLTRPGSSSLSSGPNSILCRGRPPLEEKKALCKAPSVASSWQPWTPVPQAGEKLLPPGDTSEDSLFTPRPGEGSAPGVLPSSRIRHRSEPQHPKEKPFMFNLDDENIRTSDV
UniProt Q9NP97, whole entry: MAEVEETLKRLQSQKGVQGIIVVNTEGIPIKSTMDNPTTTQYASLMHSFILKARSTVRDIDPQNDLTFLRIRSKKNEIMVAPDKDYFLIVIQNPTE
UniProt Q9H4E7, whole entry: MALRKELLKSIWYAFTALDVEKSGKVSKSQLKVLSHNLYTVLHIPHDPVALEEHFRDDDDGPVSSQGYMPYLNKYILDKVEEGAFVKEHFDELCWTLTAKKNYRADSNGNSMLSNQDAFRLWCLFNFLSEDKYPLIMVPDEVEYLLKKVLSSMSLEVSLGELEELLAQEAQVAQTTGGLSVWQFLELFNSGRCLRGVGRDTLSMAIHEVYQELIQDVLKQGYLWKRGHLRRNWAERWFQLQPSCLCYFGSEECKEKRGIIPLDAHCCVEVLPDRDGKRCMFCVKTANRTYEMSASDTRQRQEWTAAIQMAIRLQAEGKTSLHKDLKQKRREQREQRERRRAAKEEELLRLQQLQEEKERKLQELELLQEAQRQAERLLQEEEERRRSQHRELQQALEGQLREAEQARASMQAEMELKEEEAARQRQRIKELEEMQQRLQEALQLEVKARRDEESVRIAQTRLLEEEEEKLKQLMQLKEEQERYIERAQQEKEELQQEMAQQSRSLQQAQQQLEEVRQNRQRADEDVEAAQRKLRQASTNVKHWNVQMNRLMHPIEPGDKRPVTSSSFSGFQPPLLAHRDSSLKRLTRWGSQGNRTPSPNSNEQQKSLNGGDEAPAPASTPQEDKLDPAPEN
UniProt Q9HCD6: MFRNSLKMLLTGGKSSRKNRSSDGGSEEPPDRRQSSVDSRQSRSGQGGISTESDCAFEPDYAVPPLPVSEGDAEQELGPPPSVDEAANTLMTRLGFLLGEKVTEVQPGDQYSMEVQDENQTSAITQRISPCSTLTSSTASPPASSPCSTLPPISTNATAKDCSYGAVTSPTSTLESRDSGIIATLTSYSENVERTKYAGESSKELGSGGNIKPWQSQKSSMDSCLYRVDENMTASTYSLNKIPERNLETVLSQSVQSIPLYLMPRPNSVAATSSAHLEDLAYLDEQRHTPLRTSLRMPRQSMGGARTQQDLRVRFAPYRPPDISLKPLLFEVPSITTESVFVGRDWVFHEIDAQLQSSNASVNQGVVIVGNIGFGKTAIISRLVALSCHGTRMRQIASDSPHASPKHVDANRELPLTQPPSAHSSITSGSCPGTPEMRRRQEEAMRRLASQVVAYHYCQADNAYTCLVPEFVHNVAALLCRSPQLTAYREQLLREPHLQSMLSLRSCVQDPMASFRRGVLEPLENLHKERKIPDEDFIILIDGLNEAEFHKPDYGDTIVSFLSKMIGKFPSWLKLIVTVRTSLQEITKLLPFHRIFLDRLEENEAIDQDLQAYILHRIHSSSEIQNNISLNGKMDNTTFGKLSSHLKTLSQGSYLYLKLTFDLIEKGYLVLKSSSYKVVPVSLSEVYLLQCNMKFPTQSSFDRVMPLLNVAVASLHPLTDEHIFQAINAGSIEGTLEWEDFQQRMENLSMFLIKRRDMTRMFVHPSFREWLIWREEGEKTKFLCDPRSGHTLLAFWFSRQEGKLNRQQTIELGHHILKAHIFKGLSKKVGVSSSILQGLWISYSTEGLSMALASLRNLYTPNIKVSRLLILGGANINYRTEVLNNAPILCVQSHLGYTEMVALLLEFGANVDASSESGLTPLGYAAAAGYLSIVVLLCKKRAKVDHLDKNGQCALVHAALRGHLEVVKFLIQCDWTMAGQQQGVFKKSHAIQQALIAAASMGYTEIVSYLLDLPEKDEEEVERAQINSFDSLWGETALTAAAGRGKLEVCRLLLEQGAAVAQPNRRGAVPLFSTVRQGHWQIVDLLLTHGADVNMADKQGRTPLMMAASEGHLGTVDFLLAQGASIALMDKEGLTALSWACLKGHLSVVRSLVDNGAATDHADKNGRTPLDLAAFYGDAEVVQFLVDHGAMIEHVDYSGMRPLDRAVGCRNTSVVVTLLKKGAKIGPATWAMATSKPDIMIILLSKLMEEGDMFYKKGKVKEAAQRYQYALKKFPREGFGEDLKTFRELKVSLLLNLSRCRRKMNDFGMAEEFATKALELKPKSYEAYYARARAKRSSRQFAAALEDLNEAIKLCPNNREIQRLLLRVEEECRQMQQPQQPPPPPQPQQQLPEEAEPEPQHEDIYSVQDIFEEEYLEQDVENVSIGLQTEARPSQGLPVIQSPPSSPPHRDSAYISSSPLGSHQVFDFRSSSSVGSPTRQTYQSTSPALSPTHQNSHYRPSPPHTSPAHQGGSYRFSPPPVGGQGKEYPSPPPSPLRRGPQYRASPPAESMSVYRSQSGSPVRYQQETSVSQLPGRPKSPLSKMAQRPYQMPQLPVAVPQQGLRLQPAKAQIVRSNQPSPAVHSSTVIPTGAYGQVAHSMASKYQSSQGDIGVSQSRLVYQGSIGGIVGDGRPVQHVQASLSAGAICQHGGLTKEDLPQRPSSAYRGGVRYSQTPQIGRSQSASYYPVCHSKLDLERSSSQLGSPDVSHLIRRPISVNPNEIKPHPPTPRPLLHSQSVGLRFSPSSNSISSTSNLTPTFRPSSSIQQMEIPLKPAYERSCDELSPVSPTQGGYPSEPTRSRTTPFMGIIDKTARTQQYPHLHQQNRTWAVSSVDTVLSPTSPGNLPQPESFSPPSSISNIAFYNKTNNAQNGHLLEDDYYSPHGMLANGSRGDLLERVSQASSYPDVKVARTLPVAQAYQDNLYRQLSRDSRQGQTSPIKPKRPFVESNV
UniProt Q9HB58: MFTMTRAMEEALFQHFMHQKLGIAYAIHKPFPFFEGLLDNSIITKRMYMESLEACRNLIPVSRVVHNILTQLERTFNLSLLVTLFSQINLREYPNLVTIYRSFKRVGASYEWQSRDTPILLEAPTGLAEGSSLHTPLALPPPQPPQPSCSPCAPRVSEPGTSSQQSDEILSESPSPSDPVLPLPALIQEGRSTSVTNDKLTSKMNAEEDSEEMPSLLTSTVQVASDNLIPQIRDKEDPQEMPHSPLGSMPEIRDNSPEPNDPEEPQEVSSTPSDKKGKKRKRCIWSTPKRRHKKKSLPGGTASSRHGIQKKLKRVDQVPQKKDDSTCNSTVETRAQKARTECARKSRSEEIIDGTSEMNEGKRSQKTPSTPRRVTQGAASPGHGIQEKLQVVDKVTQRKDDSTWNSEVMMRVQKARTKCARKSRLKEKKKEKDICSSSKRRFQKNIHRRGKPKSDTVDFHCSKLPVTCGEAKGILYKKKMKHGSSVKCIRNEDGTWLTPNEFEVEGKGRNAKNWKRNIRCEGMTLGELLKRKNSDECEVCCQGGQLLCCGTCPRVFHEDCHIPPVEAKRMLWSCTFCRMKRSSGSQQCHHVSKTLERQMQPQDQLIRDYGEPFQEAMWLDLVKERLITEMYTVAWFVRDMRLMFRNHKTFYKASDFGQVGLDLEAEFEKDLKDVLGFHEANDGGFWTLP
UniProt Q9H6X5: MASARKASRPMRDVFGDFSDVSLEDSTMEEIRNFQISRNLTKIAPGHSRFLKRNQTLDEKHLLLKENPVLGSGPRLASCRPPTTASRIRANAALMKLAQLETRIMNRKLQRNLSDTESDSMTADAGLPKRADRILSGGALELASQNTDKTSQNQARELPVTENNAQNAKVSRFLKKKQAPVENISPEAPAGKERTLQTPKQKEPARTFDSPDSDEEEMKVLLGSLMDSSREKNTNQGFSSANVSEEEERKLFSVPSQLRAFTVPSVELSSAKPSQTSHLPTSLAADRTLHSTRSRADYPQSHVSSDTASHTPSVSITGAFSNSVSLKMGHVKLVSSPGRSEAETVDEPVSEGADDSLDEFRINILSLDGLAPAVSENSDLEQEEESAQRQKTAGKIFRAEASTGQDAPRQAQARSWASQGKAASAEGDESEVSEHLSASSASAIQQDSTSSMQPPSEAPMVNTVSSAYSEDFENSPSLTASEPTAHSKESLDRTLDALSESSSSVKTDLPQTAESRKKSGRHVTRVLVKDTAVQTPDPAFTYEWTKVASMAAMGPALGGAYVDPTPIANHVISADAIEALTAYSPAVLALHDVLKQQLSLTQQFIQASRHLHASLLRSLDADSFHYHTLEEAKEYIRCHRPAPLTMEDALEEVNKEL
UniProt Q9NPF4: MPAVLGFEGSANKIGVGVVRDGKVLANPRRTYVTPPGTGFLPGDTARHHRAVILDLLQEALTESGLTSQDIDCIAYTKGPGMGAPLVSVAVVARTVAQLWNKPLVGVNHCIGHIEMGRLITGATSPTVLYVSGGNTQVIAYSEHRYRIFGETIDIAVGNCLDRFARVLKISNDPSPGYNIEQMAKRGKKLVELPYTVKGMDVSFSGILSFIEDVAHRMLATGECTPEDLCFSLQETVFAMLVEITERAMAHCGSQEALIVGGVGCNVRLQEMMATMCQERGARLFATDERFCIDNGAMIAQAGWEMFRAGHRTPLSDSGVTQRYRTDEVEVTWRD

This is one part of the list. Most values lie at the level of the controls, where differences are scatter.

Compound in this assay: CN[C@@H]1C[C@H]2O[C@@](C)([C@@H]1OC)n1c3ccccc3c3c4c(c5c6ccccc6n2c5c31)C(=O)NC4 [staurosporine]
The experiment in a line: log2 fold change of tryptic peptide abundance, ligand vs vehicle (limited proteolysis) (log2 ratio); higher = more trypsin-susceptible (destabilized). The settings on record: ligand concentration: 20 uM; sample: K562 cleared lysate; digestion: 4 min, 22 C (HT-PELSA RT4min, Orbitrap Astral).
For “RPP21 (peptide sequence: PLQPLPNTAHSISDRLPEEK, peptide start residue: 126) (UniProt Q9H633)”, the log2 fold change was 0.235.

“BCAS3 (peptide sequence: WVVVSTLR, peptide start residue: 419) (UniProt Q9H6U6)”: the log2 fold change is -0.362.

Take “TASP1 (peptide sequence: GMSSGEGLPSR, peptide start residue: 6) (UniProt Q9H6P5)”: the log2 fold change came to 0.38.

For “AZI2 (peptide sequence: EVCIDRDNLK, peptide start residue: 98) (UniProt Q9H6S1)”, the log2 fold change turned out to be 0.363.

“RPAP3 (peptide sequence: AIELQLQVK, peptide start residue: 7) (UniProt Q9H6T3)”: the log2 fold change was -0.128.

For “ARMC7 (peptide sequence: QAHSALGIPLPR, peptide start residue: 180) (UniProt Q9H6L4)”, the log2 fold change is -0.243.

Regarding “ZFYVE1 (peptide sequence: FPEAFSSIHYK, peptide start residue: 350) (UniProt Q9HBF4)”, the log2 fold change was -0.676.

In the case of “UBE2Z (peptide sequence: TAPQCLLR, peptide start residue: 96) (UniProt Q9H832)”, the log2 fold change was 0.181.

“BCL2L12 (peptide sequence: RLVALLEEEAEVINQK, peptide start residue: 212) (UniProt Q9HB09)”: the log2 fold change is 0.257.

In the case of “CCDC134 (peptide sequence: IDRTEFIPSTDPFQK, peptide start residue: 184) (UniProt Q9H6E4)”, the log2 fold change was -0.134.

In the case of “LUC7L (peptide sequence: VCEVCSAYLGLHDNDR, peptide start residue: 189) (UniProt Q9NQ29)”, the log2 fold change is -0.195.

On to “UCK1 (peptide sequence: SHLESSSRPH, peptide start residue: 268) (UniProt Q9HA47)”, for which the log2 fold change was 0.198.

Consider “SENP2 (peptide sequence: LGSGSNGLLR, peptide start residue: 331) (UniProt Q9HC62)”, for which the log2 fold change stood at 0.238.

As for “CNOT10 (peptide sequence: SNQTTTDNLR, peptide start residue: 75) (UniProt Q9H9A5)”, the log2 fold change is -0.3.

Turning to “PLEKHA2 (peptide sequence: THECLVK, peptide start residue: 250) (UniProt Q9HB19)”, the log2 fold change was -0.485.

Take “DYNLRB1 (peptide sequence: STVRDIDPQNDLTFLR, peptide start residue: 55) (UniProt Q9NP97)”: the log2 fold change amounted to 0.352.

Turning to “AUNIP (peptide sequence: KANIYFTQR, peptide start residue: 45) (UniProt Q9H7T9)”, the log2 fold change came out at 0.463.

For “UniProt Q9H7Z3 (peptide sequence: KGDSCLGINPK, peptide start residue: 190)”, the log2 fold change turned out to be 0.42.

As for “DEF6 (peptide sequence: TYEMSASDTR, peptide start residue: 289) (UniProt Q9H4E7)”, the log2 fold change is -0.16.

For “USP42 (peptide sequence: SESCSQPVMNGK, peptide start residue: 585) (UniProt Q9H9J4)”, the log2 fold change was 0.74.

“TANC2 (peptide sequence: TQQYPHLHQQNR, peptide start residue: 1855) (UniProt Q9HCD6)”: the log2 fold change is -0.652.

As for “SP110 (peptide sequence: LQVVDKVTQR, peptide start residue: 389) (UniProt Q9HB58)”, the log2 fold change was -0.48.

In the case of “CPNE5 (peptide sequence: DIVQFVPFR, peptide start residue: 485) (UniProt Q9HCH3)”, the log2 fold change is -0.134.

Regarding “C19orf44 (peptide sequence: VLLGSLMDSSR, peptide start residue: 220) (UniProt Q9H6X5)”, the log2 fold change turned out to be 0.142.

For “DHX35 (peptide sequence: TLYTDIAIGLLKK, peptide start residue: 182) (UniProt Q9H5Z1)”, the log2 fold change was 0.561.

Consider “HPS4 (peptide sequence: SLASPAGLQDGSAQHHPK, peptide start residue: 269) (UniProt Q9NQG7)”, for which the log2 fold change was -0.185.

“ZCCHC4 (peptide sequence: FIELPLTQR, peptide start residue: 114) (UniProt Q9H5U6)”: the log2 fold change is 0.22.

In the case of “OSGEP (peptide sequence: TPLSDSGVTQR, peptide start residue: 313) (UniProt Q9NPF4)”, the log2 fold change turned out to be 0.287.
